At least one read-out could not be matched to a standard name with certainty.
Assay: pyruvate kinase-lactate dehydrogenase coupled assay, IP as variable substrate
Type: biochemical
Details: 25° C.
Protocol: All specific activity and kinetic measurements were performed using the pyruvate kinase-lactate dehydrogenase coupled assay with reference to a previously established protocol (Lindsley, 2001, Methods Mol. Biol. 95:57-64.). The reaction includes the following components in a 200 ul volume: 7 U pyruvate kinase, 10 U lactate dehydrogenase, 2 mM phosphoenolpyruvate, 0.16 mM NADH, 50 mM TRIS HCl pH 8.0, 100 mM KCl, 8 mM MgCl2, 4 mM ATP, and variable concentrations of IP (purchased from Larodan Fine Chemicals). The reaction was initiated by the addition of IPK (0.15 ug) and was followed by observing the depletion of NADH at 340 nm over time, expressed as Δ(AU340)/Δt, which was converted to Δ(ADP)/Δt. These values were then plotted against substrate concentration in GraphPad Prism® (Version 5.01 for Windows) to compute the kinetic parameters kcat and Km using the “nonlinear regression enzyme kinetic analysis” option.
From the results discussed above, it is evident that His60 from IPK plays an important role in both substrate and product binding. This is accomplished through a hydrogen bonding interaction between the Nε2 atom of His60 and a non-bridging O atom from the terminal phosphate group on either the substrate (IP) or the product (IPP). From all crystal structure data, it is apparent that the Nε2 group of His60 (and not the Nδ1 group) is relevant for binding and may therefore be reasonably assumed by one skilled in the art to be relevant for IPK-mediated catalysis. To confirm this hypothesis, His60 was mutated to Ala, Asn, and Gln. The Asn and Gln mutations were made based on the rationale that their side chains contain N atoms that are isosteric with the Nδ1 and Nε2 groups on His, respectively.

| Molecule | kcat/Km, IP (s^−1μM^−1) | kcat/Km value, times higher for wild type than for the mutant (wild type versus mutant) [times] |
| --- | --- | --- |
| IPK-Mjannaschii H60Q: M. jannaschii IPK with His60 mutated to Gln (protein, UniProt Q60352 1-260, looked up, variant H60Q) Isopentenyl phosphate kinase: MLTILKLGGSILSDKNVPYSIKWDNLERIAMEIKNALDYYKNQNKEIKLILVHGGGAFGQPVAKKYLKIEDGKKIFINMEKGFWEIQRAMRRFNNIIIDTLQSYDIPAVSIQPSSFVVFGDKLIFDTSAIKEMLKRNLVPVIHGDIVIDDKNGYRIISGDDIVPYLANELKADLILYATDVDGVLIDNKPIKRIDKNNIYKILNYLSGSNSIDVTGGMKYKIDMIRKNKCRGFVFNGNKANNIYKALLGEVEGTEIDFSE | 0.001 | 300 |
| IPK-Mjannaschii: isopentenyl phosphate kinase from Methanocaldococcus jannaschii, SEQ ID NO:1, wild type (protein, listed as Methanocaldococcus jannaschii) MLTILKLGGSILSDKNVPYSIKWDNLERIAMEIKNALDYYKNQNKEIKLILVHGGGAFGHPVAKKYLKIEDGKKIFINMEKGFWEIQRAMRRFNNIIIDTLQSYDIPAVSIQPSSFVVFGDKLIFDTSAIKEMLKRNLVPVIHGDIVIDDKNGYRIISGDDIVPYLANELKADLILYATDVDGVLIDNKPIKRIDKNNIYKILNYLSGSNSIDVTGGMKYKIEMIRKNKCRGFVFNGNKANNIYKALLGEVEGTEIDFSE | 0.34 |  |
| IPK-Mmaripaludis: isopentenyl phosphate kinase homolog from Methanococcus maripaludis, SEQ ID NO:8 (protein, listed as Methanococcus maripaludis) MFAILKLGGSILCDKNVPYSINWENLENIAIEIKEAIEYYSSKNEDFKLIIVHGGGSFGHPVAKKYLKNEKFEDMGKGYWEIQKAMRKFNNIVIEELQNFEPAVSIQASSFITFNHKSNLHFDTNAIEKMLDKGLIPVIHGDIVIDEKTDNFKIFSGDHALPFLSKKLNPDLSLHASDVDGVWDSEFKIIENINSKNIEDVLKSLKPSNKEDVTGGMHLKVMECYNLGIETIIFNGNKKRNIYNALLKNVKGTLIN | 0.61 |  |
